The assay has as its target T1, stretch 62…70 in the first Ig like domain of human CD33 (human).
T1 sequence (peptide): DQEVQEETQ
Put plainly: CLIPS peptide array ELISA (Pepscan). (In general: In an ELISA, binding on a coated surface is turned into a signal by an enzyme label.)

No constants are given. Whether binding was seen depends on the method and setting. Some entries that bind do so weakly or less than the wild type.

B1: CD33/CD3 tandem diabody 12 (bispecific antibody)
chain: DIQMTQSPSSLSASVGDRVTITCRSSTGAVTTSNYANWVQQKPGKAPKALIGGTNKRAPGVPSRFSGSLIGDKATLTISSLQPEDFATYYCALWYSNLWVFGQGTKVEIKGGSGGSQVQLVQSGAEVKKPGASVKVSCKASGYTFTSYDINWVRQAPGQGLEWMGWMNPNSGNTGFAQKFQGRVTMTRDTSTSTVYMELSSLRSEDTAVYYCARDRAVTDYYYGMDVWGQGTLVTVSSGGSGQSVLTQPPSASGTPGQRVTISCSGSRSNIGSNTVNWYQQLPGTAPKLLIYGNNQRPSGVPDRFSGSKSGTSASLAISGLQSEDEADYYCATWDDSLIGWVFGGGTKLTVLGGSGGSEVQLVESGGGLVQPGGSLRLSCAASGFTFSTYAMNWVRQAPGKGLEWVGRIRSKYNNYATYYADSVKDRFTISRDDSKNSLYLQMNSLKTEDTAVYYCARHGNFGNSYVSYFAYWGQGTLVTVSSAAAGSHHHHHH
In the case of B1, the binding entry is recorded as “binds”.

B2: CD33/CD3 tandem diabody 16 (bispecific antibody)
chain: DIQMTQSPSSLSASVGDRVTITCRSSTGAVTTSNYANWVQQKPGKAPKALIGGTNKRAPGVPSRFSGSLIGDKATLTISSLQPEDFATYYCALWYSNLWVFGQGTKVEIKGGSGGSQVQLVQSGAEVKKPGASVKVSCKASGYTFTSYDINWVRQAPGQGLEWMGWMNPNSGNTGFAQKFQGRVTMTRDTSTSTVYMELSSLRSEDTAVYYCARDRANTDYSLGMDVWGQGTLVTVSSGGSGQSVLTQPPSASGTPGQRVTISCSGSRSNIGSNTVNWYQQLPGTAPKLLIYGNNQRPSGVPDRFSGSKSGTSASLAISGLQSEDEADYYCATWDDSLIGWVFGGGTKLTVLGGSGGSEVQLVESGGGLVQPGGSLRLSCAASGFTFSTYAMNWVRQAPGKGLEWVGRIRSKYNNYATYYADSVKDRFTISRDDSKNSLYLQMNSLKTEDTAVYYCARHGNFGNSYVSYFAYWGQGTLVTVSSAAAGSHHHHHH
For B2, the binding result is reported as “binds”.

B3: CD33/CD3 tandem diabody 14 (bispecific antibody)
chain: DIQMTQSPSSLSASVGDRVTITCRSSTGAVTTSNYANWVQQKPGKAPKALIGGTNKRAPGVPSRFSGSLIGDKATLTISSLQPEDFATYYCALWYSNLWVFGQGTKVEIKGGSGGSQVQLVQSGAEVKKPGASVKVSCKASGYTFTSYDINWVRQAPGQGLEWMGWMNPNSGNTGFAQKFQGRVTMTRDTSTSTVYMELSSLRSEDTAVYYCARDRANTDFSYGMDVWGQGTLVTVSSGGSGQSVLTQPPSASGTPGQRVTISCSGSRSNIGSNTVNWYQQLPGTAPKLLIYGNNQRPSGVPDRFSGSKSGSSASLAISGLQSEDEADYYCATWDDSLIGWVFGGGTKLTVLGGSGGSEVQLVESGGGLVQPGGSLRLSCAASGFTFSTYAMNWVRQAPGKGLEWVGRIRSKYNNYATYYADSVKDRFTISRDDSKNSLYLQMNSLKTEDTAVYYCARHGNFGNSYVSYFAYWGQGTLVTVSSAAAGSHHHHHH
Turning to B3, the binding entry is “binds”.

(Values after US20210032339A1 (AMPHIVENA THERAPEUTICS, published 2021).)
